This passage reports AC50 results from PubChem BioAssay AID493014 (National Center for Advancing Translational Sciences (NCATS), 2011).

The term AC50 denotes the midpoint of the concentration-response curve, whichever way the signal moves.

The list shows a part of the results. Further columns of the screen follow, without active or inactive calls. Compounds called inactive in the main read-out are mostly missing here. The note in brackets gives the kind of curve behind each potency; many fits are weak.

The nature of the experiment: qHTS Assay to Find Inhibitors of Chronic Active B-Cell Receptor Signaling. To be noted: ABC-DLBCL IkBa-CBG/CBR reporter, luminescence ratio (green luciferase fused to IkBa over red control in TMD8 lymphoma cells), 4 h. An outline of the steps: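 TMD8 human ABC-DLBCL cells with doxycycline-inducible IκBα–green luciferase fusion and unfused red luciferase, in 0.5% FBS medium; compounds up to 46 uM, 4 h at 37C. Green/red luminescence ratio, filter-overlap corrected, fitted to concentration-response curves.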
In general terms: Quantitative high-throughput screening tests each substance at several concentrations.

The mark [1] stands for this setting: measured here: CBR red luminescence, cell number.
Setting [2] is: measured here: IkBa-CBG green luminescence.

`O=C(O)CN1C(=O)/C(=C\c2cc(Br)ccc2OCc2ccc(Cl)cc2)SC1=S`: the AC50 under setting [1] is 1 µM [rising, full curve, poor fit]. For the compound `O=C(NCc1ccccc1)c1cccc(S(=O)(=O)N2CCOCC2)c1`, under setting [1], the AC50 was 3.66 µM [rising, full curve, poor fit]. `Cc1ccc(C)c(NC(=O)CN(C)C(=O)c2ccc3ncsc3c2)c1`: the half-maximal activity concentration (AC50) under setting [1] was 10.3 µM [falling, partial curve]. For `CC(C)c1ccc(/C=N/NC(=O)c2ccccc2Cl)cc1`, the concentration at half-maximal activity (AC50) was 12.6 µM [falling, partial curve] under setting [1] and 15.8 µM [falling, partial curve] under setting [2].

For `Brc1cccc(-c2nnc(SCc3nc4ccccc4[nH]3)o2)c1`, the half-maximal activity concentration (AC50) under setting [1] is 31.6 µM [falling, single point]. For `CCOC(=O)N1CCN(C(=O)c2ccc(N3C(=O)CCC3=O)cc2)CC1`, under setting [1], the AC50 was 29.1 µM [rising, single point]. Same read-out and setting: then `O=C(Nc1nnc(-c2ccc3c(c2)CCCC3)o1)C1COc2ccccc2O1` (stereo unspecified), with 0.58 µM [rising, full curve, poor fit]; and `Cc1ccc(C)c(C(=O)OCC(=O)Nc2cccc(S(=O)(=O)N3CCCCC3)c2)c1`, with 1.46 µM [falling, partial curve, poor fit]; and `COc1ccc(Nc2nnc(SCC(=O)NC3CCS(=O)(=O)C3)s2)cc1` (stereo unspecified), with 32.6 µM [rising, partial curve, poor fit]. As to `O=c1[nH]c(=S)[nH]c2sc3c(c12)CCCCCC3`, the AC50 under setting [1] is 35.5 µM [rising, partial curve, poor fit]. Turning to `CCN1C(=O)/C(=C/c2ccc(N3CCCC3)cc2)NC1=S`, the AC50 under setting [1] was 2.91 µM [rising, full curve, poor fit]. For the compound `O=C(CNc1ccccc1C(=O)O)c1ccccc1`, under setting [1], the AC50 is 35.5 µM [falling, single point]. Same read-out and setting: for `COc1cccc(Nc2ccc(N3CCCCC3)cc2)c1OC` the value was 0.58 µM [rising, partial curve, poor fit]; for `CCCN(CCC)S(=O)(=O)c1ccc(C(=O)N2CCC(=O)c3ccccc32)cc1`, 2.51 µM [rising, partial curve]. For the compound `COc1cc2c(cc1OC)C(c1ccc(-c3ccc(Cl)c(Cl)c3)o1)=NCC2`, the AC50 under setting [1] was 23.1 µM [falling, single point]. For `COc1ccc(OC)c(NC(=S)NCC(c2cccnc2)N2CCOCC2)c1` (stereo unspecified), the concentration at half-maximal activity (AC50) under setting [1] is 3.55 µM [falling, single point].

For the compound `Cc1ccc(/C(O)=C2/C(=O)C(=O)N(CCN3CCOCC3)C2c2ccccn2)cc1` (stereo unspecified), the half-maximal activity concentration (AC50) under setting [1] was 0.092 µM [rising, full curve, poor fit]. For `CC1(c2ccccc2)NC(=O)N(CC(=O)Nc2ccc3c(c2)OCO3)C1=O` (stereo unspecified), the concentration at half-maximal activity (AC50) under setting [1] was 0.058 µM [rising, full curve, poor fit]. Turning to `C[C@@H]1CN([C@H](C)CO)C(=O)c2cc(NC(=O)Cc3cn(C)c4ccccc34)ccc2O[C@H]1CN(C)S(=O)(=O)c1ccc(F)cc1`, the AC50 under setting [1] was 0.092 µM [rising, full curve, poor fit]. `CCCCOc1ccc(C(=O)N/N=C/c2ccc(OCCN3CCCCC3)c(OC)c2)cc1`: the AC50 reads like this: under setting [1], 6.51 µM [falling, single point]; under setting [2], 0.92 µM [rising, full curve, poor fit]. With `Cc1ccc(C(=O)COC(=O)CNC(=O)c2ccccc2)s1`, under setting [1], the half-maximal activity concentration (AC50) is 29.1 µM [rising, single point].

Consider `COc1cc(/C=C2\SC(=Nc3ccccc3OC)NC2=O)ccc1O`, for which the AC50 under setting [1] is 0.316 µM [falling, full curve, poor fit] and the AC50 under setting [2] is 0.562 µM [rising, full curve, poor fit]. In the case of `COc1ccc(OC)c(Nc2nc(-c3sc(NC(=O)C(C)(C)C)nc3C)cs2)c1`, under setting [1], the AC50 was 3.55 µM [falling, partial curve, poor fit]. On to `O=C1/C(=C\c2ccc(Br)cc2)SC(=S)N1NS(=O)(=O)c1ccccc1`, for which the concentration at half-maximal activity (AC50) under setting [1] was 0.316 µM [rising, full curve, poor fit]. As to `O=C(Nc1ccc(N2CCOCC2)c(Cl)c1)c1ccc([N+](=O)[O-])o1`, under setting [1], the AC50 was 3.16 µM [falling, full curve, poor fit]. Consider `CCOC(=O)Nc1nc(-c2ccc(F)cc2F)cs1`, for which the AC50 under setting [1] is 6.51 µM [rising, single point]. Same read-out and setting: then `CNS(=O)(=O)c1cc(Cl)ccc1Sc1ccccc1C(=O)O`, with 35.5 µM [rising, single point]; and `O=C(Nc1ccccc1C(=O)N1CCN(CCO)CC1)c1cccc([N+](=O)[O-])c1`, with 35.5 µM [falling, single point]. As for `O=C(NNC1=NS(=O)(=O)c2ccccc21)c1ccccc1Cl`, the AC50 under setting [1] is 10 µM [falling, partial curve]. For the compound `O=C(Nc1ccccc1Cl)c1cccc(COc2cc(Cl)ccc2Cl)c1`, under setting [1], the AC50 was 23.1 µM [rising, partial curve, poor fit]. For `O=C(O)CN1C(=O)/C(=C\c2ccccc2OCc2ccc(Cl)cc2Cl)SC1=S`, under setting [1], the concentration at half-maximal activity (AC50) was 17.8 µM [falling, single point]. For `COc1nc(OC)nc(N2CCC(NC(=O)C(Cc3ccc(C(C)C)cc3)NC(C)=O)CC2)n1` (stereo unspecified), the AC50 under setting [1] was 0.092 µM [rising, full curve, poor fit]. Same read-out and setting: then `CN1C2C(Br)CCCCN2c2ccc(F)cc2S1(=O)=O` (stereo unspecified), with 35.5 µM [falling, single point]. Turning to `CN1C(=O)C(c2nnc(Nc3cccc4ccccc34)s2)C2CC1(C)Oc1ccccc12` (stereo unspecified), the AC50 under setting [1] is 25.9 µM [falling, single point]. In the case of `COc1ccc(S(=O)(=O)N(C)C[C@@H]2Oc3ccc(NS(=O)(=O)c4cn(C)cn4)cc3C(=O)N([C@@H](C)CO)C[C@@H]2C)cc1`, the AC50 under setting [1] was 29.1 µM [rising, single point]. Turning to `CC(C)(C)c1ccc(S(=O)(=O)NCC(=O)Nc2ccc(-c3nc4ccccc4s3)cc2)cc1`, the half-maximal activity concentration (AC50) under setting [1] is 0.58 µM [rising, full curve, poor fit]. The same measure, in the same setting: for `COC(=O)N1C(=O)[C@@](CC(C)C)(c2ccccc2)N1C(=O)OC` the value was 7.08 µM [falling, full curve, poor fit]; for `CCOc1cc(C(=O)Nc2cccc3ncccc23)cc(OCC)c1OCC`, 7.31 µM [rising, partial curve, poor fit].

Consider `COC(=O)c1ccccc1NC(=O)NC1CCCCC1`, for which the AC50 under setting [1] is 35.5 µM [falling, partial curve, poor fit]. With `COCc1cc(=O)[nH]c(Nc2nc3ccccc3o2)n1`, under setting [1], the AC50 was 0.891 µM [falling, full curve]. Still for that read-out and setting: for `CCOC(=O)c1cc(-c2cc3ccccc3o2)n[nH]1` the value was 1.3 µM [rising, partial curve]; for `CCCn1c(N2CCN(C(=O)Nc3ccccc3)CC2)nc2ccccc21`, 35.5 µM [falling, partial curve, poor fit]. On the same count and under the same terms, then `CCNC(=O)CC1C(=O)N(c2ccc(C)cc2)C(=O)N1CCc1ccc(OC)c(OC)c1` (stereo unspecified), with 7.08 µM [rising, partial curve, poor fit].

As to `CC(=O)c1ccc(NC(=O)CCCN2C(=O)C(c3ccccc3)Oc3cccnc32)cc1` (stereo unspecified), the AC50 under setting [1] is 2.82 µM [rising, single point]. For `Cc1ccc(/C=N/NC(=O)c2cc(-c3ccc(C)o3)[nH]n2)cc1`, the AC50 under setting [1] is 0.282 µM [falling, full curve, poor fit]. For the compound `O=C(COC(=O)c1ccccc1[N+](=O)[O-])NCCCc1ccccc1`, the concentration at half-maximal activity (AC50) under setting [1] was 35.5 µM [rising, partial curve, poor fit].

Turning to `CC(C)OC(=O)C(C)Nc1n[nH]c(=S)[nH]c1=O` (stereo unspecified), the half-maximal activity concentration (AC50) under setting [1] is 35.5 µM [rising, single point]. Turning to `Cc1cccc(C)c1NC(=O)N1CCN(c2nc3ccccc3s2)CC1`, the half-maximal activity concentration (AC50) under setting [1] is 6.51 µM [rising, single point]. In the case of `N#Cc1c2ccc(O)cc2n2ccccc12`, the half-maximal activity concentration (AC50) is, setting by setting: under setting [1], 22.4 µM [falling, single point]; under setting [2], 12.6 µM [rising, single point]. On to `Oc1ccccc1Nc1nc(NCc2ccccc2)c2ccccc2n1`, for which the AC50 under setting [1] is 31.6 µM [falling, single point]. In the case of `Cc1ccc(NC(=S)NC(=O)c2ccccc2)cc1NC(=S)NC(=O)c1ccccc1`, the AC50 under setting [1] was 1 µM [falling, full curve].

`CCOC(=O)c1csc(NC(=O)c2cccs2)n1`: the half-maximal activity concentration (AC50) under setting [1] is 15.8 µM [falling, single point]. The same measure, in the same setting: for `Cc1cc(/C=C(\C#N)C(=O)NC2CCCCCC2)c(C)[nH]1` the value was 6.51 µM [falling, partial curve]; for `CC(Sc1nnc(CC(C)c2ccccc2)n1N)C(N)=O` (stereo unspecified), 0.708 µM [rising, partial curve, poor fit]; for `O=C(Cn1nc(-c2ccccc2)ccc1=O)Nc1ccc(N2CCN(C(=O)c3cccs3)CC2)cc1`, 0.282 µM [rising, full curve, poor fit]. Regarding `S=C(Nc1ccccc1Cl)N1CCCC(c2ccccc2)=N1`, the AC50 under setting [1] is 0.501 µM [falling, full curve]. Turning to `COC(C(=O)N/N=C(\C)c1ccc(C(C)(C)C)cc1)c1ccccc1` (stereo unspecified), the AC50 under setting [1] is 15.8 µM [rising, partial curve, poor fit]. For the compound `O=C(Nc1ccc(Cl)c(NC(=O)c2cccs2)c1)c1ccco1`, the concentration at half-maximal activity (AC50) under setting [1] is 11.2 µM [falling, partial curve, poor fit]. In the case of `COc1cc(C#Cc2ccc3cc(CCO)oc(=O)c3c2)cc(OC)c1`, the concentration at half-maximal activity (AC50) under setting [1] was 0.0731 µM [rising, full curve, poor fit].

Turning to `CC(C)c1ccc(C(=O)Nc2ccc(N3CCOCC3)cc2)cc1`, the half-maximal activity concentration (AC50) under setting [1] was 1.3 µM [rising, full curve, poor fit]. In the case of `CCCCN(C)c1nc(-c2ccco2)c2c(c1C#N)CC(C)(C)OC2`, the half-maximal activity concentration (AC50) was 11.2 µM [falling, partial curve, poor fit] under setting [1] and 5.62 µM [rising, full curve] under setting [2].
